Source: patent US20160339110A1
These are yes or no findings as the source states them, for the method shown. A result given as binding can be weak or reduced; the word gives no strength.

Tests used:
[1] = molecular target: Recombinant ectodomain of human CD32a (human); test: ELISA
[2] = molecular target: Recombinant ectodomain of human CD32a (human); test: ELISA, plate coated with 5 ug/ml ectodomain of CD32a, detection with HRP-conjugated protein L

B1: scFv of mAb specific for ectodomain of CD32a (VL and VH from MDE-8) (scFv)
scFv: AIQLTQSPSSLSASVGDRVTITCRASQGINSALAWYQQKPGKAPKLLIYDASSLESGVPSRFSGSGSGTDFTLTISSLQPEDFATYYCQQFNSYPHTFGQGTKLEIKRGSTSGSGKPGSGEGSTKGQVHLVESGGGVVQPGRSLRLSCAASGFTFSSYGMHWVRQAPGKGLEWVAVIWYDGSNYYYTDSVKGRFTISRDNSKNTLYLQMNSLRAEDTAVYYCARDLGAAASDYWGQGTLVTVSSGGGGSGGGGSC
How did the binding [1] turn out when B1 was run?
Its binding is “binds”.

What about the binding [2] of the same binder?
The binding was “binds”.

B2: TCO-conjugated scFv specific for CD32a (scFv)
scFv: AIQLTQSPSSLSASVGDRVTITCRASQGINSALAWYQQKPGKAPKLLIYDASSLESGVPSRFSGSGSGTDFTLTISSLQPEDFATYYCQQFNSYPHTFGQGTKLEIKRGSTSGSGKPGSGEGSTKGQVHLVESGGGVVQPGRSLRLSCAASGFTFSSYGMHWVRQAPGKGLEWVAVIWYDGSNYYYTDSVKGRFTISRDNSKNTLYLQMNSLRAEDTAVYYCARDLGAAASDYWGQGTLVTVSSGGGGSGGGGSC
modifications: C-terminal cysteine conjugated with Mal-PEG3-TCO
How did the binding [1] turn out when B2 was run?
Its binding is “binds”.
